The supplement of paper PMC10849652
Some of the results follow.

Sequences of proteins named here, by UniProt entry; tags and fusion partners are left off. A change or cut given only in a name is not applied to a line headed by its entry.
UniProt Q9H6P5: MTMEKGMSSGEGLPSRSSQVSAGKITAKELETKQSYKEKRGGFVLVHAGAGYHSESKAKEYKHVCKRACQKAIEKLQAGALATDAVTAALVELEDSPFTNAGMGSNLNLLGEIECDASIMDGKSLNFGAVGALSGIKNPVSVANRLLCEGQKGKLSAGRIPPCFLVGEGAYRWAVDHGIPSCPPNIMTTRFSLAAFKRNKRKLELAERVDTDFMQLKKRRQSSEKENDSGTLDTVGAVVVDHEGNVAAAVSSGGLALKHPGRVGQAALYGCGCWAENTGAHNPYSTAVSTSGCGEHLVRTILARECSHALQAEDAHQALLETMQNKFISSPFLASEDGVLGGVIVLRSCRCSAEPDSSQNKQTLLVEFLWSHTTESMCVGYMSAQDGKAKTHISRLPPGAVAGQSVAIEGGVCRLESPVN
UniProt Q13569: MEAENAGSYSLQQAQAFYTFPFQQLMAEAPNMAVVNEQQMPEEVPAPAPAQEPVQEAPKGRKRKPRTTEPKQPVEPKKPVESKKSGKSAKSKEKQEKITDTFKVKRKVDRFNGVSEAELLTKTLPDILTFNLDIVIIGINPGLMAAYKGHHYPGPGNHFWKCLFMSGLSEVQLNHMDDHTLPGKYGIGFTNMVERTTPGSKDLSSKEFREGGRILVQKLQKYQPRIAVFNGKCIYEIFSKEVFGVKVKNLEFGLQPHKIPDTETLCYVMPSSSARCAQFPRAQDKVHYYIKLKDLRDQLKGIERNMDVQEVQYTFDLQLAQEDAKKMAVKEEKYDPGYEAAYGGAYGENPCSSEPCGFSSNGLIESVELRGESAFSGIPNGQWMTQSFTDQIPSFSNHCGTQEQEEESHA
UniProt Q96EI5: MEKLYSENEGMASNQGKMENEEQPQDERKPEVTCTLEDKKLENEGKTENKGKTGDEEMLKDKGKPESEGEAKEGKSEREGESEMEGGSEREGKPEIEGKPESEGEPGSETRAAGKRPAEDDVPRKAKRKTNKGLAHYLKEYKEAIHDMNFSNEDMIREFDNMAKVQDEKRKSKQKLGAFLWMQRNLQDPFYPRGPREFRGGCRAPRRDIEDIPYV
UniProt Q15560: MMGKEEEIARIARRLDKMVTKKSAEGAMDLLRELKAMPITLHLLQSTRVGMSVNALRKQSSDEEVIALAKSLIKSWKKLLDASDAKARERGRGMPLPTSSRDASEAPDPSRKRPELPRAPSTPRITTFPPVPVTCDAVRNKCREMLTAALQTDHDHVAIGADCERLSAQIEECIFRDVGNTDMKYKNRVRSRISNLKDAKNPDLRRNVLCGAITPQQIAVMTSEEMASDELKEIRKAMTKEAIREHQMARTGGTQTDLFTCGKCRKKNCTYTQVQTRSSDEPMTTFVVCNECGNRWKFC
UniProt P15884: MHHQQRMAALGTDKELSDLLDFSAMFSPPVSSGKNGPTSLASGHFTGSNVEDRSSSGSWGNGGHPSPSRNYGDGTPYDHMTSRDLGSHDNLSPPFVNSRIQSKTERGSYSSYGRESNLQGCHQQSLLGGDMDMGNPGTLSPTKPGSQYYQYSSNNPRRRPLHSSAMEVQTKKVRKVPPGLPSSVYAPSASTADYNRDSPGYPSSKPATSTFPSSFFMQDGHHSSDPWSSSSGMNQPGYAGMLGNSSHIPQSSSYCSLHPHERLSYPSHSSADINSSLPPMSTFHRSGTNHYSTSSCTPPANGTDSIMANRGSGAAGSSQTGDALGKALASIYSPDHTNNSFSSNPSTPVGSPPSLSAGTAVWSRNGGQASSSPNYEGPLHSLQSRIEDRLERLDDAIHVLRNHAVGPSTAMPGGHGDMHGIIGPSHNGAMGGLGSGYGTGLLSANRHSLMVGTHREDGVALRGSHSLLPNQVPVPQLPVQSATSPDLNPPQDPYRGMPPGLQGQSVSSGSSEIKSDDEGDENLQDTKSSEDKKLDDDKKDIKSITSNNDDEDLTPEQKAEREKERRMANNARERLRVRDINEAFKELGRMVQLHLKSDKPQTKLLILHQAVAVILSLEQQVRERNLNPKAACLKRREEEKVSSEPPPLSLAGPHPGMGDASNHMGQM
UniProt P20061: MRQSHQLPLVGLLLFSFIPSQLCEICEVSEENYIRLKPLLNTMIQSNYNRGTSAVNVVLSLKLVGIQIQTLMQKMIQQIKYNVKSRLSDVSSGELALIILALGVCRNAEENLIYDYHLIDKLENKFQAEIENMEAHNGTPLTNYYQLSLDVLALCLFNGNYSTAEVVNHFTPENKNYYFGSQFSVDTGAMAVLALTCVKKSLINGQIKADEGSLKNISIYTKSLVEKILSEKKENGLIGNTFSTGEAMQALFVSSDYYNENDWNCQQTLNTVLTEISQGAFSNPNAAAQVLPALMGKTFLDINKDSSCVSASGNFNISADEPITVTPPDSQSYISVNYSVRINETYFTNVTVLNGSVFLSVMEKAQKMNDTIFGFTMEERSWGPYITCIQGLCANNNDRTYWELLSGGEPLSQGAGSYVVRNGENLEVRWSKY
UniProt Q99594, whole entry, looked up: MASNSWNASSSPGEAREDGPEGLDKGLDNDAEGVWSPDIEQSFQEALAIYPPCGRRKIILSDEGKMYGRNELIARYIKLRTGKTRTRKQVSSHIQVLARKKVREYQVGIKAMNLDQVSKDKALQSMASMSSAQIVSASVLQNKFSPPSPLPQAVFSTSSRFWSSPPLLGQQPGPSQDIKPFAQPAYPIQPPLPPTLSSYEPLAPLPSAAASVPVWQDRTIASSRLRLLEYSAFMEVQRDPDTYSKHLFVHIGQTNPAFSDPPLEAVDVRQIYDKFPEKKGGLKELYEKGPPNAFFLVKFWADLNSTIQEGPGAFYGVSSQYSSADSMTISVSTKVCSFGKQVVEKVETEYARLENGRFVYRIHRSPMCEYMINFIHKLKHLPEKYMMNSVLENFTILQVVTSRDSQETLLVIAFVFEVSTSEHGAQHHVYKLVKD
UniProt O43435: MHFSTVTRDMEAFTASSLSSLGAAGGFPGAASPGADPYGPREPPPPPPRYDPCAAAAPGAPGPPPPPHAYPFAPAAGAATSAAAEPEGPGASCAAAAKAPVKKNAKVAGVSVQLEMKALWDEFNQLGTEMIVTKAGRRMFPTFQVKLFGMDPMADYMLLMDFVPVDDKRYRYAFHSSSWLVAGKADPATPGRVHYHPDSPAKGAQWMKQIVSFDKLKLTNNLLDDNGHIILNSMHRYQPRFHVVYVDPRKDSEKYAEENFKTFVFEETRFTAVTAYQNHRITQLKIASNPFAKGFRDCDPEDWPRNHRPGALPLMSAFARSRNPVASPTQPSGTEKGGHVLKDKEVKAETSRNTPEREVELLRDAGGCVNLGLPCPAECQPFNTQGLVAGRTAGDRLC
UniProt Q8IYN2: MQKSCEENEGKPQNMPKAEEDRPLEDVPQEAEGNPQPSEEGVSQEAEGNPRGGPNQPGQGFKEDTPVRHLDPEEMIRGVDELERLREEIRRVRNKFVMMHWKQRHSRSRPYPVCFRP
UniProt P54274: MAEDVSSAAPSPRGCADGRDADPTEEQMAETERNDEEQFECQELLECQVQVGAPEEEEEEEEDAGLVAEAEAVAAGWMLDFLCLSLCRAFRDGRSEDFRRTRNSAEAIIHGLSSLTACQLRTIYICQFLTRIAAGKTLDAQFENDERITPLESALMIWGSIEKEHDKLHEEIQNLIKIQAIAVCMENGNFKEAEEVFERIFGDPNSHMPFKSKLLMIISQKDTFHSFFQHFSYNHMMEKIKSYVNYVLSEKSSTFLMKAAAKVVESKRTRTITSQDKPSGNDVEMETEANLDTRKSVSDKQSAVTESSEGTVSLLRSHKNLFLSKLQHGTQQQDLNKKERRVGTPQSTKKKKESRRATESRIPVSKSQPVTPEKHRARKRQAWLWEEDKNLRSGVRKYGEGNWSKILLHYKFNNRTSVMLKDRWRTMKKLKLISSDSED
UniProt Q8N9U0: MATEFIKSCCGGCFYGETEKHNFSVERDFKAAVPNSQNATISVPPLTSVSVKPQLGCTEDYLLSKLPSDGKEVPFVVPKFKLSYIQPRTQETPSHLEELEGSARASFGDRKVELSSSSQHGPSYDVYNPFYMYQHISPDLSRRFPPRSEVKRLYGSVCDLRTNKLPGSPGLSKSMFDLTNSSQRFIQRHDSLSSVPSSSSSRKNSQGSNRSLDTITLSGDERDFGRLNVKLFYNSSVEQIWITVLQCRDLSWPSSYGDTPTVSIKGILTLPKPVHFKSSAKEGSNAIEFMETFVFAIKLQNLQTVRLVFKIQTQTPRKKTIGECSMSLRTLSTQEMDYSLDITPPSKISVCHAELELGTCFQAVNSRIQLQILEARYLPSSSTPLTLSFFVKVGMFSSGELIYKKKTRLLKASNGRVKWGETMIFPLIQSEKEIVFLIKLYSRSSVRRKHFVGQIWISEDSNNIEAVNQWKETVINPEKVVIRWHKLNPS

compound: c1cn2cc(-c3ccc4cn[nH]c4c3)nc(Nc3ccc(N4CCOCC4)cc3)c2n1 [entospletinib]; experiment: log2 fold change, soluble protein after heating vs DMSO (PISA); higher = thermal stabilisation; K562 lysate, 10 uM; active = over 0.2 and 3.5 SD of the protein, either way, in both replicates (recomputed)
Outline: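 Following dounce homogenisation of K562 pellets in PBS pH 7.4 with 1 mM MgCl2, crude extract at 1 mg/mL protein was incubated for 30 min with 10 μM compound. Aliquots were then heated for 3 min over 48°C-58°C and pooled, NP-40 was added to 0.5% at 4°C, and soluble protein was recovered as the supernatant at 21,000xg for 90 min. Channel-sum-equalised TMTpro 16plex LC-MS/MS quantified this protein. Each value, from duplicates, is a log-two fold change in thermal stability relative to solvent controls.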

log2 fold change, inactive:
TASP1 (UniProt Q9H6P5) 0.21
TBP (UniProt P20226) -0.215
TDG (UniProt Q13569) -0.045
TCEAL4 isoform 2 (UniProt Q96EI5) 0.019
TASOR2 (UniProt Q5VWN6) 0.037
TBCD, A0A0J9YWI5 0.061
TCEA2 (UniProt Q15560) -0.069
TARDBP (UniProt K7EN94) -0.166
TCF4 (UniProt P15884) -0.074
TCN1 (UniProt P20061) -0.17
TET2 (UniProt Q6N021) -0.15
TEAD3 (UniProt Q99594) -0.026
TBX1 isoform 3 (UniProt O43435) -0.176
TEC (UniProt P42680) 0.037
TCEAL8 (UniProt Q8IYN2) -0.161
TAOK2 (UniProt Q9UL54) 0.01
TERF1 (UniProt P54274) 0.132
TC2N (UniProt Q8N9U0) -0.009
TEDC1 (UniProt Q86SX3) -0.032
TBCK (UniProt Q8TEA7) -0.014

Already shown: an excerpt of the list.
log2 fold change, inactive:
TCEAL8 (UniProt Q8IYN2) -0.161
TAOK2 (UniProt Q9UL54) 0.01
